## Library compounds against nucleic acid targets

Source: the ROBIN nucleic acid binder screens (doi:10.1002/anie.202211358).

Targets (5′ to 3′):
SAM-II: SAM-II riboswitch RNA pseudoknot, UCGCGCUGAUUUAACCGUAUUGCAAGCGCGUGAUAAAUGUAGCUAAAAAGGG. Hit rate about 1% of about 21,000 compounds.
PreQ1: PreQ1 riboswitch RNA pseudoknot, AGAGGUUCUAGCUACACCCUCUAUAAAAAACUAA. From B. subtilis. Hit rate about 0.7% of about 24,000 compounds.
TPP: TPP riboswitch RNA three-way junction, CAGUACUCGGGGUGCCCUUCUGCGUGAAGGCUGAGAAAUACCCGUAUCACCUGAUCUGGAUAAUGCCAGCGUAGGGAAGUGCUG. Hit rate about 0.7% of about 24,000 compounds.

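The test is a small-molecule microarray: each compound is printed twice on a reactive slide, and binding shows as fluorescence of the labelled oligonucleotide after washing. The data file lists only calls. An earlier report of the laboratory on the PreQ1, TPP and SAM-II riboswitches (doi:10.1038/s41467-019-09493-3) used 1 µM RNA for 2 h and required a mean Z-score above 3 (spot signal-to-noise against the whole library), a score well above that on a control array, and duplicate spots agreeing (coefficient of variation under 100); it then also set aside compounds that hit other targets, which this list keeps. The cut-offs behind this list may differ. A missing hit is not proof of no binding, and a hit is not a measured affinity.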 A compound is marked hit if it was called a hit and none if it was screened but was not. This is an unselected part of the compounds tested. A dash means that no call is listed here.

| # | SMILES | SAM-II | PreQ1 | TPP |
|---|---|---|---|---|
| 1 | `Cc1ccc(C(=N)Nc2ccccc2)cc1` | none | none | none |
| 2 | `Cc1ccc(-c2nn3c(NCCOCCO)cc(C)nc3c2C)cc1` | - | none | none |
| 3 | `COc1ccc2c(c1)CCN(CC[C@H](O)c1ccccc1)CC2` | none | none | none |
| 4 | `COC(=O)c1cc(NC2c3ccccc3C(=O)N2Cc2ccccc2)cc(C(=O)OC)c1` (stereo unspecified) | none | none | none |
| 5 | `N#Cc1ccccc1-c1ccc(CN2CCOC(CN)C2)o1` (stereo unspecified) | none | none | none |
| 6 | `CCOc1ccc(C(=O)c2oc3ccccc3c2N)cc1` | none | none | none |
| 7 | `CSc1ccc(C2OC3=C(C(=O)CC(C)(C)C3)C(N)=C2C#N)cc1` (stereo unspecified) | none | none | none |
| 8 | `CC1CCCN(C(=O)CCNCc2cc(-c3ccccc3)[nH]n2)C1` (stereo unspecified) | none | none | none |
| 9 | `Nc1nc(CCC(=O)NCCSC2CCCCC2)cs1` | none | none | none |
| 10 | `CCNc1ccccc1C(=O)O` | none | none | none |
| 11 | `CCNc1ncc(C(=O)N2C[C@@H](CN3CCCCC3)[C@@H](CO)C2)cn1` | none | none | none |
| 12 | `Cc1cccc(-c2nc3c4ccccc4nc(NCCCN4CCOCC4)n3n2)c1` | - | none | none |
| 13 | `O=C(NCc1cc(-c2ccco2)on1)c1cn(CCN2CCNCC2)nn1` | none | none | none |
| 14 | `Nc1ccc(C(=O)N2CCC(c3nccn3CC3CC3)CC2)cn1` | none | none | none |
| 15 | `Cc1sc2nc(Cn3cnc4sc5c(c4c3=O)CCNC5)cn2c1C` | none | none | none |
| 16 | `O=C(O)C1CC2(CCN(S(=O)(=O)N3CCCC3)CC2)CN1` (stereo unspecified) | none | none | none |
| 17 | `CC(=O)NCC1(O)CCCC(C)C1` (stereo unspecified) | none | none | none |
| 18 | `O=C(NCc1ccccc1)c1csc(Nc2ccncn2)n1` | none | none | none |
| 19 | `CCCCc1nc(CN2C[C@H](N)C[C@H]2C(=O)NC)c(Cl)[nH]1` | none | none | none |
| 20 | `O=C(c1ccc(CNc2c(N3CCCCC3)c(=O)c2=O)cc1)N1CCc2ccccc2C1` | - | none | none |
| 21 | `Nc1ccc2nc(-c3ccccc3)c(-c3ccccc3)nc2c1` | none | none | none |
| 22 | `O=C(NCc1ccccc1)N1CCC2(CC1)[C@H](O)C[C@@H]2O` | none | none | none |
| 23 | `CCOC(=O)c1nc(Nc2cc(C)ccc2O)c2ccccc2n1` | none | none | none |
| 24 | `CC(C)(C)C(=O)/C=C/c1ccc(Oc2ccccc2)cc1` | none | none | none |
| 25 | `CC1CC(C)(C)Nc2ccc(OC(=O)c3cccs3)cc21` (stereo unspecified) | none | none | none |
| 26 | `OC(CN1CCN(c2ccccc2F)CC1)c1c[nH]c2ccc(F)cc12` (stereo unspecified) | - | none | none |
| 27 | `Cc1ccccc1N1CCN(Cc2cc(C#CCO)cs2)C(C)C1` (stereo unspecified) | none | none | none |
| 28 | `NCCc1nc(N(CCCCO)Cc2ccccc2)c2ccccc2n1` | hit | none | none |
| 29 | `C#CCN1C(=O)C2(C(C#N)=C(N)OC3=C2C(=O)CC(C)(C)C3)c2ccccc21` (stereo unspecified) | none | none | none |
| 30 | `COCc1noc(CCn2cnc3sc4c(c3c2=O)CCNC4)n1` | none | none | none |
| 31 | `O=c1c2ccccc2cnn1CCNC1CCN(c2nc3ccccc3o2)CC1` | none | none | none |
| 32 | `O=C(Nc1ccc(NC(=O)c2ccncc2)cc1)c1ccncc1` | none | none | none |
| 33 | `Cc1cccc(NC2c3ccccc3C(=O)N2Cc2ccccc2)c1C` (stereo unspecified) | none | none | none |
| 34 | `CN1c2ccccc2C2=C(C(c3ccccc3Cl)C(C#N)=C(N)O2)S1(=O)=O` (stereo unspecified) | - | none | none |
| 35 | `Cc1ccc2nc(CNCC(=O)N3CCNCC3)cc(O)c2c1` | none | none | none |
| 36 | `CSCC(=O)N1CCC2(CCN(Cc3cn(C)nc3C)CC2)C(CO)C1` (stereo unspecified) | none | none | none |
| 37 | `Nc1ccc(Cl)cn1` | none | none | none |
| 38 | `NCCc1cccc(CN2CCCC(C(=O)Cc3ccccc3)C2)c1` (stereo unspecified) | none | none | none |
| 39 | `COc1ccc(C2C(C#N)=C(N)Oc3cc(C)oc(=O)c32)c(OC)c1` (stereo unspecified) | none | none | none |
| 40 | `CCSCCNC[C@]1(O)CCCN2CCCC[C@@H]21` | none | none | none |
| 41 | `CCNC(=O)c1cc2c(=O)n3cccc(C)c3nc2n(CCOCCO)c1=N` | none | none | none |
| 42 | `CCC(C)Nc1nc2c(c(=O)n(C)c(=O)n2C)n1C` (stereo unspecified) | none | none | none |
| 43 | `Cc1cc2cc(C(=O)NCC3CNCCO3)ccc2o1` (stereo unspecified) | none | none | none |
| 44 | `COc1ccccc1N1CCN(CC(O)c2c(C)[nH]c3ccc(C)cc23)CC1` (stereo unspecified) | - | none | none |
| 45 | `Nc1ccnc(N2CCc3onc(C(c4ccccc4)c4ccccc4)c3C2)n1` | none | none | none |
| 46 | `COc1ccccc1/C=C1\Cc2ccccc2C1=O` | none | none | none |
| 47 | `Cc1cc(-n2cnnn2)cc(NC(=O)CCc2cc3n(n2)CCNC3)c1C` | none | none | none |
| 48 | `COc1cccc(CNCCNC(=O)c2nonc2N)c1` | none | none | none |
| 49 | `CCOc1ccc(Nc2cc(Cl)nc(N)n2)cc1` | none | none | none |
| 50 | `Cc1ccc(NC(=O)CNCCNc2ncccc2C)c(C)c1` | none | none | none |
| 51 | `Cc1ccc(Nc2cc(N3CCN(S(=O)(=O)c4ccccc4F)CC3)nc(C)n2)cc1` | - | none | none |
| 52 | `c1ccc(-n2cnc3cc(NCc4ccccn4)ccc32)cc1` | none | none | none |
| 53 | `Cc1ccc(-c2csc(-c3ccccc3N)n2)cc1` | none | none | none |
| 54 | `CCC1CCC(NC(C)C23CC4CC(CC(c5ccc(Cl)cc5)(C4)C2)C3)CC1` (stereo unspecified) | none | none | none |
| 55 | `Cc1ccc(N2C(=O)c3cccnc3C2Nc2ccccc2)cc1` (stereo unspecified) | - | none | none |
| 56 | `OC1(CN2CCCN(Cc3ccncc3)CC2)CCNC1` (stereo unspecified) | none | none | none |